Hit rate of the full screen: of about 300,000 compounds, about 3,700 (1.2%) were called active. Inconclusive results, whose numbers are uncertain, are shown with a selection of clear calls. The call rests on the fitted dose curve; tested in HEK293 cells. Where the call is inconclusive, the potency comes from a doubtful curve fit.
Test: qHTS for Inhibitors of binding or entry into cells for Lassa Virus; further: nearly all actives have a fitted effect of over 50% in size
Conditions: Lassa virus pseudotype entry inhibition, cell reporter; series mostly up to 37.9 µM
Potency means the concentration at half of the fitted maximal effect.

SMILES | Potency
Cc1ccccc1NC(=O)c1c(C)oc2ccc(O)c(CN3CCCC3)c12 | inactive
CCOc1ccc(NCc2nnc(SCC(=O)Nc3cc(C)on3)n2-c2ccc(OC)cc2)cc1 | inconclusive: 29.1 µM [inhibitor, single point]
COc1ccccc1C(=O)Nc1ccc(S(=O)(=O)N(C)c2ccccc2)cc1 | inconclusive: 5.01 µM [inhibitor, full curve]
O=C(COc1ccc(F)cc1Br)N1CCc2ccccc21 | inactive
COc1cccc(-c2cc(C(=O)Nc3cc(C)nn3-c3ccccc3)no2)c1 | inconclusive: 2.51 µM [inhibitor, partial curve, poor fit]
Cc1ccc(S(=O)(=O)NC(=O)c2ccc(-c3ccc(-c4ccccc4)cc3)o2)c(C)c1 | inconclusive: 2.06 µM [inhibitor, partial curve, poor fit]
O=C(CN(CC1CCCO1)C(=O)CNS(=O)(=O)c1ccc(F)cc1)NCC1CCCO1 (stereo not given) | inactive
CCCC(=O)NC1=C(C#N)C2(CCCCC2)Cc2ccccc21 | inactive
COc1cc(OC)cc(C(=O)Nc2ccc3oc(-c4ccccc4C)nc3c2)c1 | inactive
Cc1cc(NC(=O)CCC(=O)N(CC(=O)NCC2CCCO2)c2cccc(C)c2C)no1 (stereo not given) | inactive
O=C(NNC(=O)C1CC1)c1ccc(-c2ccccc2)cc1 | inactive
COc1cccc(CNC(=O)CNS(=O)(=O)c2ccc3nc(C)sc3c2)c1 | inconclusive: 0.1 µM [activator, partial curve, poor fit]
CCC1C(=NO)C(CC)C(c2ccccc2)NC1c1ccccc1 (stereo not given) | inconclusive: 35.5 µM [inhibitor, single point]
Cc1ccc(-c2nnc(-c3cccs3)o2)cc1 | inconclusive: 12.6 µM [inhibitor, single point]
C=CCOc1c(Cl)cc(CNc2ccc(N(C)C)cc2)cc1OC | inconclusive: 4.11 µM [inhibitor, full curve, poor fit]
COc1cc(C(=O)Oc2ccccc2/C=N/NC(=O)c2ccc(C)c(Cl)c2)cc(OC)c1OC | inconclusive: 1.26 µM [activator, partial curve, poor fit]
O=C(c1cc(-c2cccs2)on1)N1CCOCC1 | inconclusive: 0.517 µM [activator, full curve, poor fit]
COc1ccc(NC(=O)CN(C)C(=O)Cn2c(=O)oc3ccccc32)cc1 | inconclusive: 35.5 µM [activator, single point]
CCN(CC(=O)Nc1ccc(NC(C)=O)cc1)C(=O)/C=C/c1ccccc1 | inactive
CC(C(=O)NCCN1CCOCC1)c1ccc([N+](=O)[O-])cc1 (stereo not given) | inactive

2 neighbouring compounds already listed:
SMILES | Potency
C=CCOc1c(Cl)cc(CNc2ccc(N(C)C)cc2)cc1OC | inconclusive: 4.11 µM [inhibitor, full curve, poor fit]
COc1cc(C(=O)Oc2ccccc2/C=N/NC(=O)c2ccc(C)c(Cl)c2)cc(OC)c1OC | inconclusive: 1.26 µM [activator, partial curve, poor fit]

Source: PubChem BioAssay AID540256 (National Center for Advancing Translational Sciences (NCATS), 2011)
